{
  "sequences": {"note": "Sequences of proteins named here, by UniProt entry; tags and fusion partners are left off.", "UniProt P26196": "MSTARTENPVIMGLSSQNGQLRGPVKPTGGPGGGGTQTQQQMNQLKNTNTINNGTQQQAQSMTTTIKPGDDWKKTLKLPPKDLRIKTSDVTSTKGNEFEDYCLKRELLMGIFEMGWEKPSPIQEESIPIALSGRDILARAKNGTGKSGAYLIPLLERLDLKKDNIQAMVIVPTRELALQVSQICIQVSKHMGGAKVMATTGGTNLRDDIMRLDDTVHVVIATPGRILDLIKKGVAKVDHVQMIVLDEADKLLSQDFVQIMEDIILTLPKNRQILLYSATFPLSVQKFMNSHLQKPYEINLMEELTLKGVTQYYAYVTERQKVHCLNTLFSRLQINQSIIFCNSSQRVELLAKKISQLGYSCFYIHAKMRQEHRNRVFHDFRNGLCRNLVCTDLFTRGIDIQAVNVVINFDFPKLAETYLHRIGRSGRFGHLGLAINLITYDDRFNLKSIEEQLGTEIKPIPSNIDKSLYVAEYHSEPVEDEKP"},
  "source": "paper PMC8414799",
  "target": "GFP-DDX6 (UniProt P26196)",
  "test": "co-IP; HEK-293T cells transfected with Flag-RIG-I and GFP-NC or GFP-DDX6; lysed in RIPA buffer after 36 h; lysate incubated with anti-Flag antibody at 4°C overnight, then Protein A+G agarose beads for 60 min; Western blot with antibodies to RIG-I, GFP and GAPDH (the results instead speak of an antibody specific for the GFP tag on DDX6)",
  "note": "These are yes or no findings as the source states them, for the method shown. In cells and extracts the contact can be indirect. Some binding calls cover weakened binding; strength is not graded here. Sequences can lack the tags named with a protein.",
  "data": [
    {"binder": "Flag-RIG-I (protein, UniProt O95786 1-925) MTTEQRRSLQAFQDYIRKTLDPTYILSYMAPWFREEEVQYIQAEKNNKGPMEAATLFLKFLLELQEEGWFRGFLDALDHAGYSGLYEAIESWDFKKIEKLEEYRLLLKRLQPEFKTRIIPTDIISDLSECLINQECEEILQICSTKGMMAGAEKLVECLLRSDKENWPKTLKLALEKERNKFSELWIVEKGIKDVETEDLEDKMETSDIQIFYQEDPECQNLSENSCPPSEVSDTNLYSPFKPRNYQLELALPAMKGKNTIICAPTGCGKTFVSLLICEHHLKKFPQGQKGKVVFFANQIPVYEQQKSVFSKYFERHGYRVTGISGATAENVPVEQIVENNDIIILTPQILVNNLKKGTIPSLSIFTLMIFDECHNTSKQHPYNMIMFNYLDQKLGGSSGPLPQVIGLTASVGVGDAKNTDEALDYICKLCASLDASVIATVKHNLEELEQVVYKPQKFFRKVESRISDKFKYIIAQLMRDTESLAKRICKDLENLSQIQNREFGTQKYEQWIVTVQKACMVFQMPDKDEESRICKALFLYTSHLRKYNDALIISEHARMKDALDYLKDFFSNVRAAGFDEIEQDLTQRFEEKLQELESVSRDPSNENPKLEDLCFILQEEYHLNPETITILFVKTRALVDALKNWIEGNPKLSFLKPGILTGRGKTNQNTGMTLPAQKCILDAFKASGDHNILIATSVADEGIDIAQCNLVILYEYVGNVIKMIQTRGRGRARGSKCFLLTSNAGVIEKEQINMYKEKMMNDSILRLQTWDEAVFREKILHIQTHEKFIRDSQEKPKPVPDKENKKLLCRKCKALACYTADVRVIEECHYTVLGDAFKECFVSRPHPKPKQFSSFEKRAKIFCARQNCSHDWGIHVKYKTFEIPVIKIESFVVEDIATGVQTLYSKWKDFHFEKIPFDPAEMSK", "values": [
      {"measurement": "binding", "result": "binds"}
    ]}
  ]
}
